In this assay the test system is A549 cells. In words: Clonogenic assay. As to conditions: Homo sapiens. Format: cell-based. The method, then: The NSCLC cancer cell lines, A549, H1975, CL25, CL83, CL97, CL141, and CL152 were maintained in RPMI medium. Tested cells were seeded respectively in 6 well plates with 10^4 cells per well for 14 days. Each well contained 10 ml RPMI medium as cultured condition for NSCLC cells. […] Trifluoperazine and other tested drugs were added 24 hours after seeding of the cells. The medium and trifluoperazine were changed once on day 4. After the treatments, cells were washed with PBS, and the colonies were fixed with fix solution (acetic acid:methanol=1:3) and stained with 0.5% crystal violet in methanol. After removing the crystal violet carefully and rinse with tap water, the colonies were counted manually.

Broadly, the IC50 is the midpoint of a concentration-inhibition curve. Read a high IC50 as weaker potency in that assay.

The structures appear in SMILES notation.

`CN1CCN(CCCN2c3ccccc3Sc3ccc(Cl)cc32)CC1` [Prochlorperazine] registered a concentration for half-maximal inhibition (IC50) of 5 to 10 µM.

Values taken from patent publication US20140294994A1, “PHARMACEUTICAL COMPOSITION FOR ELIMINATION OF CANCER STEM CELLS” (priority 2011, published 2014).
